{"source": "PubChem BioAssay AID590", "about": "(National Center for Advancing Translational Sciences (NCATS), 2007)", "note": "In all, about 59,000 compounds went through this assay and about 6,500 (11%) were called active. The inconclusive results got no clear call from the source; some entries with a clear call stand among them for comparison. No stated cut-off is given here; in the data, active means max dye-equivalent concentration above about 10 nM; inconclusive means mostly about 1.1 nM to 9.6 nM; inactive means weaker than that.", "data": [{"assay": "qHTS Assay for Spectroscopic Profiling in A350 Spectral Region", "conditions": "Compound autofluorescence, 340/450 nm, Alexa 350 dye-equivalents; active compounds read high", "values": [{"smiles": "CCc1ccc(CC)c(S(=O)(=O)Nc2ccc(O)c(C(=O)O)c2)c1", "max dye-equivalent concentration": "inactive"}, {"smiles": "CCCCC[C@H](O)/C=C/[C@H]1C=CC(=O)[C@@H]1C/C=C\\CCCC(=O)O", "max dye-equivalent concentration": "inconclusive: 2 nM"}, {"smiles": "COc1ccc(NC(=O)N2CC[C@@]3(CCCN(S(C)(=O)=O)C3)C2)cc1", "max dye-equivalent concentration": "inactive"}, {"smiles": "CCOC(=O)c1[nH]c2ccc(F)cc2c1NC(=O)CN1CCc2cc(OC)c(OC)cc2C1", "max dye-equivalent concentration": "inconclusive: 2.8 nM"}, {"smiles": "CC1CCN(c2nc(-c3ccccc3)c(C#N)c(=O)[nH]2)CC1", "max dye-equivalent concentration": "inconclusive: 4.5 nM"}, {"smiles": "CCCCCn1c(=O)c(-c2nc3ccccc3c(=O)[nH]2)c(O)c2ccccc21", "max dye-equivalent concentration": "inconclusive: 8.1 nM"}, {"smiles": "CCNc1ncc2nc(-c3cccs3)c(=O)n(C[C@H]3CCCO3)c2n1", "max dye-equivalent concentration": "active: 74 nM"}, {"smiles": "O=C(NCC1CCCO1)c1ccc2c(=O)n(CCc3ccccc3)c(=O)[nH]c2c1", "note": "(configuration not stated)", "max dye-equivalent concentration": "inconclusive: 1.3 nM"}, {"smiles": "COc1ccc(S(=O)(=O)N2CCCCC2)cc1Br", "max dye-equivalent concentration": "inactive"}, {"smiles": "Cc1cc(NC(=O)CSc2nccn2-c2ccc(Cl)cc2)no1", "max dye-equivalent concentration": "inactive"}, {"smiles": "COC(=O)C1=C(N)Oc2cc(C)n(Cc3cccnc3)c(=O)c2C1c1ccc(OC)c(OC)c1", "note": "(configuration not stated)", "max dye-equivalent concentration": "inconclusive: 4.1 nM"}, {"smiles": "O=C(CSc1ncnc2c1oc1ccccc12)Nc1ccc2c(c1)OCCO2", "max dye-equivalent concentration": "inactive"}, {"smiles": "COc1cccc(-c2nc(NCc3cccnc3)c3ccccc3n2)c1", "max dye-equivalent concentration": "inactive"}, {"smiles": "COc1ccc(N2CCN(c3oc(-c4ccc(OC)c(OC)c4)nc3C#N)CC2)cc1", "max dye-equivalent concentration": "inconclusive: 2.4 nM"}, {"smiles": "CC1CCCCN1C(=O)C12CCC(C)(/C(=N/O)C1)C2(C)C", "note": "(configuration not stated)", "max dye-equivalent concentration": "inactive"}, {"smiles": "CCc1c(C)sc(NC(=O)c2cc(-c3ccco3)on2)c1C#N", "max dye-equivalent concentration": "inconclusive: 8.2 nM"}, {"smiles": "CC[C@H]1CN2CCc3cc(OC)c(OC)cc3[C@@H]2C[C@@H]1C[C@H]1NCCc2cc(OC)c(OC)cc21", "max dye-equivalent concentration": "inconclusive: 1.1 nM"}, {"smiles": "Cc1ccc(S(=O)(=O)CC2CSc3nnc(C)c(=O)n32)cc1", "note": "(configuration not stated)", "max dye-equivalent concentration": "inconclusive: 4.2 nM"}, {"smiles": "CNc1oc(-c2ccccc2Cl)nc1C#N", "max dye-equivalent concentration": "inconclusive: 3.9 nM"}, {"smiles": "COc1ccc(S(=O)(=O)Nc2ccc(Cl)cn2)c(C)c1C", "max dye-equivalent concentration": "inconclusive: 2.3 nM"}, {"smiles": "CC1Oc2ccccc2N(CC(=O)NCCc2ccccc2)C1=O", "note": "(configuration not stated)", "max dye-equivalent concentration": "inactive"}, {"smiles": "COc1cc(OC)cc(C(=O)NC(C(=O)NCCN(C)C)C23CC4CC(CC(C4)C2)C3)c1", "note": "(configuration not stated)", "max dye-equivalent concentration": "inactive"}, {"smiles": "COc1nc(N)nc2c1ncn2[C@@H]1C[C@H](O)[C@@H](CO)O1", "max dye-equivalent concentration": "inactive"}, {"smiles": "CC1=C(C(=O)OCC(C)C)C23C(=O)c4ccccc4C2(O1)OC(N)=C3C#N", "note": "(configuration not stated)", "max dye-equivalent concentration": "inactive"}, {"smiles": "CC(=O)c1ccc(N2CCN(C(=O)CCCn3c(=S)[nH]c4cc5c(cc4c3=O)OCO5)CC2)cc1", "max dye-equivalent concentration": "inconclusive: 5.6 nM"}, {"smiles": "COCCNc1nc(-c2c(C)noc2C)nc2ccccc12", "max dye-equivalent concentration": "inactive"}, {"smiles": "CCc1c(C)sc(NC(=O)c2ccco2)c1C(=O)N1CCOCC1", "max dye-equivalent concentration": "inconclusive: 4.3 nM"}, {"smiles": "NC(=O)COC(=O)c1cc(S(=O)(=O)N2CCOCC2)ccc1N1CCCCC1", "max dye-equivalent concentration": "inconclusive: 3.9 nM"}, {"smiles": "CCS(=O)(=O)N1CCC(C(=O)NCc2cccnc2)CC1", "max dye-equivalent concentration": "inconclusive: 1.5 nM"}, {"smiles": "Cn1c(=NC(=O)CSCC(=O)N2CCCCC2)sc2ccccc21", "max dye-equivalent concentration": "inconclusive: 2.2 nM"}, {"smiles": "CC(C)Cn1c(N)c(S(=O)(=O)c2cccs2)c2nc3ccccc3nc21", "max dye-equivalent concentration": "active: 3100 nM"}, {"smiles": "O=c1c2ccccc2nc2c3ccccc3c3nncn3n12", "max dye-equivalent concentration": "inconclusive: 7.6 nM"}, {"smiles": "Fc1ccc(C2CC(c3ccccc3)n3ncnc3N2)cc1", "note": "(configuration not stated)", "max dye-equivalent concentration": "inactive"}, {"smiles": "CN(C)C(=O)c1ccc(-c2nc(Nc3ccc(F)cc3)c3ccccc3n2)cc1", "max dye-equivalent concentration": "inconclusive: 2.4 nM"}, {"smiles": "CN(C)P(=NC(=O)COc1ccc(Cl)cc1Cl)(N(C)C)N(C)C", "max dye-equivalent concentration": "inactive"}, {"smiles": "COC(=O)C(C#N)c1nc2ccccc2nc1N1CCCC1", "note": "(configuration not stated)", "max dye-equivalent concentration": "active: 56 nM"}, {"smiles": "O=c1c2ccccc2oc2ncccc12", "max dye-equivalent concentration": "inconclusive: 2.6 nM"}, {"smiles": "Clc1ccccc1-c1nn2c(Cn3cnc4ccccc43)nnc2s1", "max dye-equivalent concentration": "inconclusive: 2.6 nM"}, {"smiles": "CCN(CC)CCNC(=O)c1ccc(NC(C)=O)cc1", "max dye-equivalent concentration": "inconclusive: 3.8 nM"}, {"smiles": "O=C(COC(=O)c1cnccn1)Nc1ccc(Cl)cc1", "max dye-equivalent concentration": "inconclusive: 3 nM"}, {"smiles": "COc1cccc2sc(Nc3nc(-c4ccccn4)cs3)nc12", "max dye-equivalent concentration": "inconclusive: 1.5 nM"}, {"smiles": "CC(=O)N1CCN(c2ccc(NC(=O)c3ccccc3Br)cc2Cl)CC1", "max dye-equivalent concentration": "inconclusive: 1.7 nM"}, {"smiles": "Cc1cccc(NC(=O)c2ccccc2NC(=O)C(C)(C)C)n1", "max dye-equivalent concentration": "inconclusive: 8.7 nM"}, {"smiles": "CC(C)=CCCC(C)NC(=O)NC1CCCCC1", "note": "(configuration not stated)", "max dye-equivalent concentration": "inactive"}, {"smiles": "CCOCCCNC(=O)c1ccc(OC)cc1", "max dye-equivalent concentration": "inconclusive: 2.1 nM"}, {"smiles": "CCC1(CC)NC(=O)NC1=O", "max dye-equivalent concentration": "inconclusive: 4.9 nM"}, {"smiles": "CC1CCN(CCNC(=O)CCS(=O)(=O)c2ccc(Br)cc2)CC1", "max dye-equivalent concentration": "inconclusive: 6.7 nM"}, {"smiles": "CCC(NC(=O)NCCCn1ccnc1)(C(F)(F)F)C(F)(F)F", "max dye-equivalent concentration": "inconclusive: 1.5 nM"}, {"smiles": "COc1ccccc1CNC(=O)[C@@H]1CCCN1C(=O)C1CCN(S(=O)(=O)c2ccc(C)cc2)CC1", "max dye-equivalent concentration": "inconclusive: 1.4 nM"}, {"smiles": "O=C(Nc1cccnc1)c1cc(-c2cccs2)on1", "max dye-equivalent concentration": "active: 16 nM"}, {"smiles": "CCc1cc2c(=O)c(-c3cscn3)coc2c(CN(C)C)c1O", "max dye-equivalent concentration": "active: 310 nM"}, {"smiles": "COCCn1c(-c2cc(OC)c(OC)c(OC)c2)nc2nc3ccccc3nc21", "max dye-equivalent concentration": "active: 19 nM"}, {"smiles": "CCc1cccc2c1NC(=O)[C@]21[C@@H]2C(=O)N(Cc3ccccc3)C(=O)[C@@H]2[C@@H]2CCCN21", "max dye-equivalent concentration": "inconclusive: 7.3 nM"}, {"smiles": "COC(=O)c1cc2ccc(OC)c(OC)c2c(=O)s1", "max dye-equivalent concentration": "active: 20 nM"}, {"smiles": "O=C(O)c1cc2n(n1)C(C(F)(F)F)CC(c1ccco1)N2", "note": "(configuration not stated)", "max dye-equivalent concentration": "inconclusive: 1.2 nM"}, {"smiles": "Cc1[nH]c2ccc(-c3nnc(SCC(=O)NCc4ccco4)n3Cc3ccccc3)cc2c1C", "max dye-equivalent concentration": "inconclusive: 4.3 nM"}, {"smiles": "CCc1nnc(NC(=O)CSc2nnc(-c3cc4ccccc4cc3O)n2CC)s1", "max dye-equivalent concentration": "inconclusive: 2.4 nM"}]}]}
